Measured values published in US20250074896A1, “ARYLTETRAHYDROPYRIDAZINE DERIVATIVE OR SALT THEREOF AND INSECTICIDAL AGENT CONTAINING THE COMPOUND AND METHOD FOR USING SAME” (NIHON NOHYAKU CO., LTD., priority 2021, published 2025).
Some of these results come from one statement about several compounds together.

Columns and labels:
Type in all cases: in vivo
[1] = tested on: Diamondback moth (Plutella xylostella); assay: Insecticidal test on diamondback moth (dip treatment of Chinese cabbage seedlings with laid eggs); settings: dip about 30 seconds, 6 days after treatment, 25° C.
[2] = tested on: Small Brown Planthopper (Laodelphax striatellus); assay: Insecticidal test on small brown planthopper (dipped rice seedlings, 3rd-instar larvae); settings: rice seedlings dipped 30 seconds, 8 days after inoculation
[3] = tested on: Western Flower Thrips (Frankliniella occidentalis); assay: Insecticidal test on western flower thrips (kidney bean leaf pieces, hatched larvae); settings: 4 days after the treatment

COC(=O)N1C(=O)C(C(=O)Nc2ccc(F)cc2)=C(O)CN1c1ccc(Cl)nn1 [3-413]
A (the mortality rate is 100%): insecticidal efficacy (corrected mortality rate) against diamondback moth ([1]; 50 ppm) | insecticidal efficacy (corrected mortality rate) against diamondback moth ([1]; 500 ppm) | insecticidal efficacy (corrected mortality rate) against small brown planthopper ([2]; 50 ppm) | insecticidal efficacy (corrected mortality rate) against small brown planthopper ([2]; 500 ppm) | insecticidal efficacy (corrected mortality rate) against western flower thrips ([3]; 50 ppm) | insecticidal efficacy (corrected mortality rate) against western flower thrips ([3]; 500 ppm)

N#Cc1ccc(N2CC(O)=C(C(=O)Nc3cccc(F)c3)C(=O)N2)cn1 [1-205]
A (the mortality rate is 100%): insecticidal efficacy (corrected mortality rate) against diamondback moth ([1]; 50 ppm) | insecticidal efficacy (corrected mortality rate) against diamondback moth ([1]; 500 ppm) | insecticidal efficacy (corrected mortality rate) against small brown planthopper ([2]; 50 ppm) | insecticidal efficacy (corrected mortality rate) against small brown planthopper ([2]; 500 ppm) | insecticidal efficacy (corrected mortality rate) against western flower thrips ([3]; 50 ppm) | insecticidal efficacy (corrected mortality rate) against western flower thrips ([3]; 500 ppm)

COC(=O)N1C(=O)C(C(=O)Nc2ccc(Cl)cc2)=C(O)CN1c1ccc(C#N)nc1 [3-191]
A (the mortality rate is 100%): insecticidal efficacy (corrected mortality rate) against diamondback moth ([1]; 50 ppm) | insecticidal efficacy (corrected mortality rate) against diamondback moth ([1]; 500 ppm) | insecticidal efficacy (corrected mortality rate) against small brown planthopper ([2]; 50 ppm) | insecticidal efficacy (corrected mortality rate) against small brown planthopper ([2]; 500 ppm) | insecticidal efficacy (corrected mortality rate) against western flower thrips ([3]; 50 ppm) | insecticidal efficacy (corrected mortality rate) against western flower thrips ([3]; 500 ppm)

O=C(Nc1ccc(F)cc1)C1=C(O)CN(c2ccc(C(F)(F)F)nc2)N(C(=O)Nc2ccc(F)cc2)C1=O [3-80]
A (the mortality rate is 100%): insecticidal efficacy (corrected mortality rate) against diamondback moth ([1]; 50 ppm) | insecticidal efficacy (corrected mortality rate) against diamondback moth ([1]; 500 ppm) | insecticidal efficacy (corrected mortality rate) against small brown planthopper ([2]; 50 ppm) | insecticidal efficacy (corrected mortality rate) against small brown planthopper ([2]; 500 ppm) | insecticidal efficacy (corrected mortality rate) against western flower thrips ([3]; 50 ppm) | insecticidal efficacy (corrected mortality rate) against western flower thrips ([3]; 500 ppm)

COc1cc(NC(=O)C2=C(O)CN(c3cnc(C#N)c(Cl)c3)NC2=O)ccc1Cl [1-230]
A (the mortality rate is 100%): insecticidal efficacy (corrected mortality rate) against diamondback moth ([1]; 500 ppm) | insecticidal efficacy (corrected mortality rate) against small brown planthopper ([2]; 500 ppm) | insecticidal efficacy (corrected mortality rate) against western flower thrips ([3]; 50 ppm) | insecticidal efficacy (corrected mortality rate) against western flower thrips ([3]; 500 ppm)

COc1ccc(NC(=O)C2=C(O)CN(c3cnc(C#N)c(C)c3)NC2=O)cc1 [1-380]
A (the mortality rate is 100%): insecticidal efficacy (corrected mortality rate) against diamondback moth ([1]; 50 ppm) | insecticidal efficacy (corrected mortality rate) against diamondback moth ([1]; 500 ppm) | insecticidal efficacy (corrected mortality rate) against small brown planthopper ([2]; 50 ppm) | insecticidal efficacy (corrected mortality rate) against small brown planthopper ([2]; 500 ppm) | insecticidal efficacy (corrected mortality rate) against western flower thrips ([3]; 50 ppm) | insecticidal efficacy (corrected mortality rate) against western flower thrips ([3]; 500 ppm)

COC(=O)N1C(=O)C(C(=O)Nc2ccc(F)cc2)=C(O)CN1c1ccc(-c2ccc(C(F)(F)F)cc2)nc1 [3-509]
A (the mortality rate is 100%): insecticidal efficacy (corrected mortality rate) against diamondback moth ([1]; 500 ppm) | insecticidal efficacy (corrected mortality rate) against small brown planthopper ([2]; 50 ppm) | insecticidal efficacy (corrected mortality rate) against small brown planthopper ([2]; 500 ppm) | insecticidal efficacy (corrected mortality rate) against western flower thrips ([3]; 500 ppm)

Cc1ccc(NC(=O)C2=C(O)CN(c3cnc(C#N)c(C)c3)NC2=O)cc1 [1-107]
A (the mortality rate is 100%): insecticidal efficacy (corrected mortality rate) against diamondback moth ([1]; 50 ppm) | insecticidal efficacy (corrected mortality rate) against diamondback moth ([1]; 500 ppm) | insecticidal efficacy (corrected mortality rate) against small brown planthopper ([2]; 50 ppm) | insecticidal efficacy (corrected mortality rate) against small brown planthopper ([2]; 500 ppm) | insecticidal efficacy (corrected mortality rate) against western flower thrips ([3]; 50 ppm) | insecticidal efficacy (corrected mortality rate) against western flower thrips ([3]; 500 ppm)

COc1ccc(NC(=O)C2=C(O)CN(c3ccc(C#N)c(F)c3)NC2=O)nc1 [1-38]
A (the mortality rate is 100%): insecticidal efficacy (corrected mortality rate) against diamondback moth ([1]; 500 ppm) | insecticidal efficacy (corrected mortality rate) against small brown planthopper ([2]; 50 ppm) | insecticidal efficacy (corrected mortality rate) against small brown planthopper ([2]; 500 ppm) | insecticidal efficacy (corrected mortality rate) against western flower thrips ([3]; 500 ppm)

CCCNC(=S)N1C(=O)C(C(=O)Nc2ccc(F)cc2)=C(O)CN1c1ccc(C(F)(F)F)nc1 [3-364]
A (the mortality rate is 100%): insecticidal efficacy (corrected mortality rate) against diamondback moth ([1]; 50 ppm) | insecticidal efficacy (corrected mortality rate) against diamondback moth ([1]; 500 ppm) | insecticidal efficacy (corrected mortality rate) against small brown planthopper ([2]; 50 ppm) | insecticidal efficacy (corrected mortality rate) against small brown planthopper ([2]; 500 ppm) | insecticidal efficacy (corrected mortality rate) against western flower thrips ([3]; 50 ppm) | insecticidal efficacy (corrected mortality rate) against western flower thrips ([3]; 500 ppm)

COC(=O)N1C(=O)C(C(=O)Nc2cc(F)cc(F)c2)=C(O)CN1c1ccc(C#N)nc1 [3-553]
A (the mortality rate is 100%): insecticidal efficacy (corrected mortality rate) against diamondback moth ([1]; 50 ppm) | insecticidal efficacy (corrected mortality rate) against diamondback moth ([1]; 500 ppm) | insecticidal efficacy (corrected mortality rate) against small brown planthopper ([2]; 50 ppm) | insecticidal efficacy (corrected mortality rate) against small brown planthopper ([2]; 500 ppm) | insecticidal efficacy (corrected mortality rate) against western flower thrips ([3]; 50 ppm) | insecticidal efficacy (corrected mortality rate) against western flower thrips ([3]; 500 ppm)

COC(=O)N1C(=O)C(C(=O)Nc2cccc(OC)n2)=C(O)CN1c1cnc(C#N)c(Cl)c1 [3-478]
A (the mortality rate is 100%): insecticidal efficacy (corrected mortality rate) against diamondback moth ([1]; 500 ppm) | insecticidal efficacy (corrected mortality rate) against small brown planthopper ([2]; 50 ppm) | insecticidal efficacy (corrected mortality rate) against small brown planthopper ([2]; 500 ppm) | insecticidal efficacy (corrected mortality rate) against western flower thrips ([3]; 50 ppm) | insecticidal efficacy (corrected mortality rate) against western flower thrips ([3]; 500 ppm)

COC(=O)N1C(=O)C(C(=O)Nc2cc(C)on2)=C(O)CN1c1cnc(C#N)c(Cl)c1 [3-468]
A (the mortality rate is 100%): insecticidal efficacy (corrected mortality rate) against diamondback moth ([1]; 500 ppm) | insecticidal efficacy (corrected mortality rate) against small brown planthopper ([2]; 50 ppm) | insecticidal efficacy (corrected mortality rate) against small brown planthopper ([2]; 500 ppm) | insecticidal efficacy (corrected mortality rate) against western flower thrips ([3]; 500 ppm)

O=C(Nc1ccc(F)cc1)C1=C(O)CN(c2ccc(C(F)(F)F)nc2)N(C(=O)NCCCl)C1=O [3-73]
A (the mortality rate is 100%): insecticidal efficacy (corrected mortality rate) against diamondback moth ([1]; 50 ppm) | insecticidal efficacy (corrected mortality rate) against diamondback moth ([1]; 500 ppm) | insecticidal efficacy (corrected mortality rate) against small brown planthopper ([2]; 50 ppm) | insecticidal efficacy (corrected mortality rate) against small brown planthopper ([2]; 500 ppm) | insecticidal efficacy (corrected mortality rate) against western flower thrips ([3]; 50 ppm) | insecticidal efficacy (corrected mortality rate) against western flower thrips ([3]; 500 ppm)

Cn1ccc(NC(=O)C2=C(O)CN(c3ccc(Cl)nc3)NC2=O)n1 [1-298]
A (the mortality rate is 100%): insecticidal efficacy (corrected mortality rate) against diamondback moth ([1]; 500 ppm) | insecticidal efficacy (corrected mortality rate) against small brown planthopper ([2]; 50 ppm) | insecticidal efficacy (corrected mortality rate) against small brown planthopper ([2]; 500 ppm) | insecticidal efficacy (corrected mortality rate) against western flower thrips ([3]; 500 ppm)

N#Cc1ccc(N2CC(O)=C(C(=O)Nc3ccc(F)c(F)c3)C(=O)N2)cc1 [1-12]
A (the mortality rate is 100%): insecticidal efficacy (corrected mortality rate) against diamondback moth ([1]; 50 ppm) | insecticidal efficacy (corrected mortality rate) against diamondback moth ([1]; 500 ppm) | insecticidal efficacy (corrected mortality rate) against small brown planthopper ([2]; 50 ppm) | insecticidal efficacy (corrected mortality rate) against small brown planthopper ([2]; 500 ppm) | insecticidal efficacy (corrected mortality rate) against western flower thrips ([3]; 50 ppm) | insecticidal efficacy (corrected mortality rate) against western flower thrips ([3]; 500 ppm)

COC(=O)N1C(=O)C(C(=O)Nc2ccc(F)cc2)=C(O)CN1c1ccc(C(F)(F)F)nc1 [3-135]
A (the mortality rate is 100%): insecticidal efficacy (corrected mortality rate) against diamondback moth ([1]; 50 ppm) | insecticidal efficacy (corrected mortality rate) against diamondback moth ([1]; 500 ppm) | insecticidal efficacy (corrected mortality rate) against small brown planthopper ([2]; 500 ppm) | insecticidal efficacy (corrected mortality rate) against western flower thrips ([3]; 50 ppm) | insecticidal efficacy (corrected mortality rate) against western flower thrips ([3]; 500 ppm)

N#Cc1ccc(N2CC(O)=C(C(=O)Nc3ccc(F)nc3)C(=O)N2)cc1F [1-5]
A (the mortality rate is 100%): insecticidal efficacy (corrected mortality rate) against diamondback moth ([1]; 50 ppm) | insecticidal efficacy (corrected mortality rate) against diamondback moth ([1]; 500 ppm) | insecticidal efficacy (corrected mortality rate) against small brown planthopper ([2]; 50 ppm) | insecticidal efficacy (corrected mortality rate) against small brown planthopper ([2]; 500 ppm) | insecticidal efficacy (corrected mortality rate) against western flower thrips ([3]; 50 ppm) | insecticidal efficacy (corrected mortality rate) against western flower thrips ([3]; 500 ppm)

COC(=O)N1C(=O)C(C(=O)Nc2cccc(C#N)c2)=C(O)CN1c1cnc(C#N)c(C)c1 [3-498]
A (the mortality rate is 100%): insecticidal efficacy (corrected mortality rate) against diamondback moth ([1]; 500 ppm) | insecticidal efficacy (corrected mortality rate) against small brown planthopper ([2]; 50 ppm) | insecticidal efficacy (corrected mortality rate) against small brown planthopper ([2]; 500 ppm) | insecticidal efficacy (corrected mortality rate) against western flower thrips ([3]; 50 ppm) | insecticidal efficacy (corrected mortality rate) against western flower thrips ([3]; 500 ppm)
